Test results as given in article PMC9971195.
These are yes or no findings as the source states them, for the method shown. Binding seen in cells or lysates may run through a third protein. Some binding calls cover weakened binding; strength is not graded here. For some of these results: Tags and fused reporters may be left off the sequences shown.

T1: CEMIP (cell migration-inducing and hyaluronan-binding protein), endogenous (human (endogenous in HCT116)) (UniProt Q8WUJ3)
T1 sequence: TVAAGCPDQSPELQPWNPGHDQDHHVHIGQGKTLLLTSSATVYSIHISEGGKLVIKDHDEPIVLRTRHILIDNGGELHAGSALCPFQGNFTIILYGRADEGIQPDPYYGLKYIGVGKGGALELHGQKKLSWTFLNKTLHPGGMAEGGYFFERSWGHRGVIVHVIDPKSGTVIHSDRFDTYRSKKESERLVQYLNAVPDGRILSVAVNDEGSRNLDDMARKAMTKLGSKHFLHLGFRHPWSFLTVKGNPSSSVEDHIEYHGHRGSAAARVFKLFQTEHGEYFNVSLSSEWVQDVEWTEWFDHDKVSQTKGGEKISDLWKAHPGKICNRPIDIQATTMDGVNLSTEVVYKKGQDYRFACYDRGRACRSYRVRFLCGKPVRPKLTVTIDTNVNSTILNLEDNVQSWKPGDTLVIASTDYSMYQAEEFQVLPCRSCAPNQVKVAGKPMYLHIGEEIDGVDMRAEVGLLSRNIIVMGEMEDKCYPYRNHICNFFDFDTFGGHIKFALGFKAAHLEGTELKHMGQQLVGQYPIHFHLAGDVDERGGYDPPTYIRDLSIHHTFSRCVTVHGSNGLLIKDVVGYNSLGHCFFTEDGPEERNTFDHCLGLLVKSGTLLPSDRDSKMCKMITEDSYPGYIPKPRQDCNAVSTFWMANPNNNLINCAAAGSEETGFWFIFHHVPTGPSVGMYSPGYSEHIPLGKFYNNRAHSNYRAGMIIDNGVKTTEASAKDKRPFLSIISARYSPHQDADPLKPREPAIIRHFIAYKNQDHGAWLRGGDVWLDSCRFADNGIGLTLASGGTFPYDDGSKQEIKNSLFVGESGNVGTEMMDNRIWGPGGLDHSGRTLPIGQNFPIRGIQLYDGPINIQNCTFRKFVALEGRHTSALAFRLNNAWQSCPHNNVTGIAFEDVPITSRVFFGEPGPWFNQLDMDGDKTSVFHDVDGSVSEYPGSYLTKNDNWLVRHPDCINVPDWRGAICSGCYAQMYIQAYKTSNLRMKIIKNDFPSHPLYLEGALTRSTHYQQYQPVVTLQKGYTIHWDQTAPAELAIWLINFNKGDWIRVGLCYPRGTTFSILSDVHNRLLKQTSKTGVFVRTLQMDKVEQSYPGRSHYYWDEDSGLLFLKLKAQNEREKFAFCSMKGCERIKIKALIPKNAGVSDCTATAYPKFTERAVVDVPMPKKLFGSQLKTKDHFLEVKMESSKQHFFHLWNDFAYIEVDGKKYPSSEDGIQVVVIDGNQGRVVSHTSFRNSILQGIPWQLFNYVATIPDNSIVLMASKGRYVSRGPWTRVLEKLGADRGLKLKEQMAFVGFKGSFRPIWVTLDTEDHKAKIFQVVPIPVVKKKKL

T2: Flag-GRAF1 (GRAF1-overexpression plasmid with Flag tag attached in N terminal of GRAF1), in HEK293T cells (UniProt Q9UNA1)
T2 sequence: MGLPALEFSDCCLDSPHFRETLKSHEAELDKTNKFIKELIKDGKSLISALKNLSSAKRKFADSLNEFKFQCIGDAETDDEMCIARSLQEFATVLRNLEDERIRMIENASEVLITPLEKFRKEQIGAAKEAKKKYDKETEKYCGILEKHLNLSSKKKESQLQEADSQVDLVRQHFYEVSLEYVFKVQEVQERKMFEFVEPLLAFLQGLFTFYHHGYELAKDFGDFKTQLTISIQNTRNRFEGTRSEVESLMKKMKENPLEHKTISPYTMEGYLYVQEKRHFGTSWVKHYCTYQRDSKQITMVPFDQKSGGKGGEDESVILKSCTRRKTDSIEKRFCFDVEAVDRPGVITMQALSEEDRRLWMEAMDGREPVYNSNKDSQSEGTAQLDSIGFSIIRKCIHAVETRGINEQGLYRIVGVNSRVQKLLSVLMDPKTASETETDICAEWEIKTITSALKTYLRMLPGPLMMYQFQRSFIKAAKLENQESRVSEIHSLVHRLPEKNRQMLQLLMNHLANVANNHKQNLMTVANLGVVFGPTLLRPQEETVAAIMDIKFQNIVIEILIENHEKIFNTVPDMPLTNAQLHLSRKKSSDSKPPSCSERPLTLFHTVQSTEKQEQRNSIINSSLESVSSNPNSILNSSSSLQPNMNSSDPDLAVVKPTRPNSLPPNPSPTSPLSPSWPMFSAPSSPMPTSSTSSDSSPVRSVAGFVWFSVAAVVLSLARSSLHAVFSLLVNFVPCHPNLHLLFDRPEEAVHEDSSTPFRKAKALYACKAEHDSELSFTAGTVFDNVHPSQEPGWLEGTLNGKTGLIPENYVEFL

T3: CEMIP-myc (CEMIP cDNA with c-myc tag attached in C terminal of CEMIP), in HEK293T cells (UniProt Q8WUJ3)
T3 sequence: T1 sequence

B1: GRAF1 (also named ARHGAP26), endogenous (protein, UniProt Q9UNA1 1-814)
chain: T2 sequence
B2: CEMIP-myc (CEMIP cDNA with c-myc tag attached in C terminal of CEMIP), in HEK293T cells (protein, UniProt Q8WUJ3 31-1361)
chain: T1 sequence
B3: Flag-GRAF1 (GRAF1-overexpression plasmid with Flag tag attached in N terminal of GRAF1), in HEK293T cells (protein, UniProt Q9UNA1 1-814)
chain: T2 sequence
B4: CEMIP-myc-∆2: 295–591aa (domain or fragment, UniProt Q8WUJ3 295-591)
chain: AAARVFKLFQTEHGEYFNVSLSSEWVQDVEWTEWFDHDKVSQTKGGEKISDLWKAHPGKICNRPIDIQATTMDGVNLSTEVVYKKGQDYRFACYDRGRACRSYRVRFLCGKPVRPKLTVTIDTNVNSTILNLEDNVQSWKPGDTLVIASTDYSMYQAEEFQVLPCRSCAPNQVKVAGKPMYLHIGEEIDGVDMRAEVGLLSRNIIVMGEMEDKCYPYRNHICNFFDFDTFGGHIKFALGFKAAHLEGTELKHMGQQLVGQYPIHFHLAGDVDERGGYDPPTYIRDLSIHHTFSRCVT
B5: CEMIP-myc-∆3: 572–819aa (domain or fragment, UniProt Q8WUJ3 572-819)
chain: DPPTYIRDLSIHHTFSRCVTVHGSNGLLIKDVVGYNSLGHCFFTEDGPEERNTFDHCLGLLVKSGTLLPSDRDSKMCKMITEDSYPGYIPKPRQDCNAVSTFWMANPNNNLINCAAAGSEETGFWFIFHHVPTGPSVGMYSPGYSEHIPLGKFYNNRAHSNYRAGMIIDNGVKTTEASAKDKRPFLSIISARYSPHQDADPLKPREPAIIRHFIAYKNQDHGAWLRGGDVWLDSCRFADNGIGLTLAS
B6: CEMIP-myc-∆2 + 3: 295–819aa (domain or fragment, UniProt Q8WUJ3 295-819)
chain: AAARVFKLFQTEHGEYFNVSLSSEWVQDVEWTEWFDHDKVSQTKGGEKISDLWKAHPGKICNRPIDIQATTMDGVNLSTEVVYKKGQDYRFACYDRGRACRSYRVRFLCGKPVRPKLTVTIDTNVNSTILNLEDNVQSWKPGDTLVIASTDYSMYQAEEFQVLPCRSCAPNQVKVAGKPMYLHIGEEIDGVDMRAEVGLLSRNIIVMGEMEDKCYPYRNHICNFFDFDTFGGHIKFALGFKAAHLEGTELKHMGQQLVGQYPIHFHLAGDVDERGGYDPPTYIRDLSIHHTFSRCVTVHGSNGLLIKDVVGYNSLGHCFFTEDGPEERNTFDHCLGLLVKSGTLLPSDRDSKMCKMITEDSYPGYIPKPRQDCNAVSTFWMANPNNNLINCAAAGSEETGFWFIFHHVPTGPSVGMYSPGYSEHIPLGKFYNNRAHSNYRAGMIIDNGVKTTEASAKDKRPFLSIISARYSPHQDADPLKPREPAIIRHFIAYKNQDHGAWLRGGDVWLDSCRFADNGIGLTLAS

Tests used:
[1] = target: T1, CEMIP (cell migration-inducing and hyaluronan-binding protein), endogenous (human (endogenous in HCT116)); assay: proximity ligation; Duolink in situ fluorescence on fixed HCT116 cells, endogenous proteins, pairs of primary antibodies 2 h at 37 °C, IgG pair as control, confocal microscope
[2] = target: T1, CEMIP (cell migration-inducing and hyaluronan-binding protein), endogenous (human (endogenous in HCT116)); assay: co-IP; endogenous proteins in HCT116 lysate, NETN buffer, Protein G agarose beads with primary antibody or IgG (negative control), overnight at 4 °C, western blot; for GRAF1 and MIB1 also with knock-down of CEMIP (shCEMIP)
[3] = target: T2, Flag-GRAF1 (GRAF1-overexpression plasmid with Flag tag attached in N terminal of GRAF1), in HEK293T cells; assay: co-IP; HEK293T cells co-transfected with the indicated constructs, whole cell lysate, NETN buffer, Protein G agarose beads, overnight at 4 °C, western blot
[4] = target: T3, CEMIP-myc (CEMIP cDNA with c-myc tag attached in C terminal of CEMIP), in HEK293T cells; assay: as above

| Binder | binding [3] | other results |
| --- | --- | --- |
| B1 | – | binding [1]: binds; binding [2]: binds |
| B2 | binds | – |
| B3 | – | binding [4]: binds |
| B4 | binds | – |
| B5 | binds | – |
| B6 | binds | – |
